Data on six molecules can be found in the supplement of paper PMC10032668.

Protein sequences, listed by entry. Tags and fused reporters are not part of them.
ATP6V1F, Q16864, UniProt Q16864, whole entry: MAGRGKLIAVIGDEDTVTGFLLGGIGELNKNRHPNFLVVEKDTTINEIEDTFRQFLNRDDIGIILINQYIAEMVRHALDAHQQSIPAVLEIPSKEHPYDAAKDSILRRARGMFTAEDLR
CXorf40A, Q8TE69, UniProt Q8TE69, whole entry: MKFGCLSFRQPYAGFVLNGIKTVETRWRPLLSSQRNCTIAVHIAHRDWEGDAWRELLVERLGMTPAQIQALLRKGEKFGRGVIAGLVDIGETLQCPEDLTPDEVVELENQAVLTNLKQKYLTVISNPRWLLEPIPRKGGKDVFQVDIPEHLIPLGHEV
DMD, P11532, UniProt P11532, whole entry: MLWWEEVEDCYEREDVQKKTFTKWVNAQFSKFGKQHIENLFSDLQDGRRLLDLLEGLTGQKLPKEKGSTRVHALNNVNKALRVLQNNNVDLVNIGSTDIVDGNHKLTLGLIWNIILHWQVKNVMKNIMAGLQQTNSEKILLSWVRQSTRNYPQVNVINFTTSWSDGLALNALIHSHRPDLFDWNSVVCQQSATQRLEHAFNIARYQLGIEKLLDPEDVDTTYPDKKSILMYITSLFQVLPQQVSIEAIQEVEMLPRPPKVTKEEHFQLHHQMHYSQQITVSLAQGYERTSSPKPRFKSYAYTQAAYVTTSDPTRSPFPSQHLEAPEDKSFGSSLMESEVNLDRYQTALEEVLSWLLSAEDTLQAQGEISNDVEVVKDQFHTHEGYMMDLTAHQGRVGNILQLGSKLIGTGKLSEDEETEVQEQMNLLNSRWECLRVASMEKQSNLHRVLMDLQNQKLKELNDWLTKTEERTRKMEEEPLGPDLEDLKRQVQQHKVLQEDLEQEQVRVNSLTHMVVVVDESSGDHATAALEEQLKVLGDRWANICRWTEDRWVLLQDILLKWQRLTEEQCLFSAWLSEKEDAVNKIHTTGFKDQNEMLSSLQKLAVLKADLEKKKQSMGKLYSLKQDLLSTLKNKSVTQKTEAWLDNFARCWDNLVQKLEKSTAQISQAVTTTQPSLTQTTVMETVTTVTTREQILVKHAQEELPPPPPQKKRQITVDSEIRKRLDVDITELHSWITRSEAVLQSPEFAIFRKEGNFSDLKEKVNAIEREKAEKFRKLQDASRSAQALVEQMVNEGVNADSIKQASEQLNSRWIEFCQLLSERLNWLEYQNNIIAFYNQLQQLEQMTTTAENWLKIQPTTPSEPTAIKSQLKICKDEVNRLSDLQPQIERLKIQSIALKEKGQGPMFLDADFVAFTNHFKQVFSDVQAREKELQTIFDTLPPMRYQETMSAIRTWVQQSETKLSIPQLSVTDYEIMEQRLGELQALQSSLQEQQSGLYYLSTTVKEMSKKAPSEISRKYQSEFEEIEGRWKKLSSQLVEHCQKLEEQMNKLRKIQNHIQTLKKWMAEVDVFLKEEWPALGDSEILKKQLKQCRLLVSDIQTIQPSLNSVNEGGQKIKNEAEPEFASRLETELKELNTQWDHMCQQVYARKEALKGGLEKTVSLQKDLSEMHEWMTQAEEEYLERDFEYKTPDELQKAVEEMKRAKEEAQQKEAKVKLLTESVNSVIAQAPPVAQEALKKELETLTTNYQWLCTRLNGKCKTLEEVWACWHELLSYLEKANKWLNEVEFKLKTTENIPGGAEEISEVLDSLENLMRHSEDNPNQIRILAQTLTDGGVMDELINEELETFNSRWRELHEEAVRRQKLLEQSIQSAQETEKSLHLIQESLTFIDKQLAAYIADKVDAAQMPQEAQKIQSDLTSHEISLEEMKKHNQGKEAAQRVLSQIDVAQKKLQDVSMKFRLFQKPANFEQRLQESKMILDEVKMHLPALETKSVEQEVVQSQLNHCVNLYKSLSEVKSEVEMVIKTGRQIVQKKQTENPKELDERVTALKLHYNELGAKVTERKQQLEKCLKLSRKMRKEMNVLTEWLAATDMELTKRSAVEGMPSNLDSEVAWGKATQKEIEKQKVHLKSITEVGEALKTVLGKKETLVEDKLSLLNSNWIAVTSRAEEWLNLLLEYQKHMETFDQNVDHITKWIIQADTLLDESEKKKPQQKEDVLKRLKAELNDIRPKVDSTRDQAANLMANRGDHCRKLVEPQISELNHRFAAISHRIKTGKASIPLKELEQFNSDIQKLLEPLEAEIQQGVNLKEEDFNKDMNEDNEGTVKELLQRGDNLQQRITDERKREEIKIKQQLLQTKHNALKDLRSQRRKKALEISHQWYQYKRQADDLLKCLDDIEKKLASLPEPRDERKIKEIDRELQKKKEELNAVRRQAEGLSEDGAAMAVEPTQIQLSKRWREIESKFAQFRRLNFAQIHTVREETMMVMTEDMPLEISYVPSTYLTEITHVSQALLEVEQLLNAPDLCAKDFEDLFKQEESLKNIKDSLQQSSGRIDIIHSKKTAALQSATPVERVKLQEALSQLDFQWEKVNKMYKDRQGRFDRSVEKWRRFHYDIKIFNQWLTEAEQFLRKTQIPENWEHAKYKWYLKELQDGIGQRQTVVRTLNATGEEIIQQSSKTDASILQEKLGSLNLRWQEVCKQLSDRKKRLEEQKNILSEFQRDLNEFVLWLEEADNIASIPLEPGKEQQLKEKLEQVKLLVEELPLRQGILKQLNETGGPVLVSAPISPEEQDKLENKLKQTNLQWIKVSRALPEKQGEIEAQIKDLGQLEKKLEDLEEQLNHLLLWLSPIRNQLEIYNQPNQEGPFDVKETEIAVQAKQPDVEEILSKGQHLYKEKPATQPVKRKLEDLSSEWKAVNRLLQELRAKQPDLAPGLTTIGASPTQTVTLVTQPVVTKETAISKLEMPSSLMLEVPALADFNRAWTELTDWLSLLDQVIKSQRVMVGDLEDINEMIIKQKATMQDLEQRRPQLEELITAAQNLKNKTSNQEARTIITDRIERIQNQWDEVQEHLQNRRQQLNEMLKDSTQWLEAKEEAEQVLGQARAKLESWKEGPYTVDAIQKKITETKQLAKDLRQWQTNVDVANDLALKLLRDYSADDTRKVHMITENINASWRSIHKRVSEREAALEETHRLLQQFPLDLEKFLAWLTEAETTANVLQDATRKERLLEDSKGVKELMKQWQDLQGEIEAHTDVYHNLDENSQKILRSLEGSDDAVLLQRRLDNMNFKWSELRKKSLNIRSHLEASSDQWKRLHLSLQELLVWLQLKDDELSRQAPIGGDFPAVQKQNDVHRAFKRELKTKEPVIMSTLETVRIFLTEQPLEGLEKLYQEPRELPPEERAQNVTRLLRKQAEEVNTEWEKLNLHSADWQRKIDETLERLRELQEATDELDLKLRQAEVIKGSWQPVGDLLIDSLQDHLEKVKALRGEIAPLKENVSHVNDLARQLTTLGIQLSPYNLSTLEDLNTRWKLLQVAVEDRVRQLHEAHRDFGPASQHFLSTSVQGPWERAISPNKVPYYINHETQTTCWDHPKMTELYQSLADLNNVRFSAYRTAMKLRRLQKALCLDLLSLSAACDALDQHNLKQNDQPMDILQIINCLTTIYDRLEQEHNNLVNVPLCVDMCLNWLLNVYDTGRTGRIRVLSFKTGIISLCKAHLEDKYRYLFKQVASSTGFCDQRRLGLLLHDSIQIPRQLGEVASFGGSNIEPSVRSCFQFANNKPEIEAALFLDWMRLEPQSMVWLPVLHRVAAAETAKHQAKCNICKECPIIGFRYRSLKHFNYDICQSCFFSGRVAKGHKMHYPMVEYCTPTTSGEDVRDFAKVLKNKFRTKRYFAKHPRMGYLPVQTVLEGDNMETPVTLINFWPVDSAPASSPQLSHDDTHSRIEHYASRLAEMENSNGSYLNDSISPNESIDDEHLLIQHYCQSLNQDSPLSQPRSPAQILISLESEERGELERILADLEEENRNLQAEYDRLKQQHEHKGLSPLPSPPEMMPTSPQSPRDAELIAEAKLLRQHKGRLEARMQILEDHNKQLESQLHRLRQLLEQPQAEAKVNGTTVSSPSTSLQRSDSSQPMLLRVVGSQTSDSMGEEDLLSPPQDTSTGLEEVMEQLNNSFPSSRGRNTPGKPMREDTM
MECP2, P51608, UniProt P51608, whole entry: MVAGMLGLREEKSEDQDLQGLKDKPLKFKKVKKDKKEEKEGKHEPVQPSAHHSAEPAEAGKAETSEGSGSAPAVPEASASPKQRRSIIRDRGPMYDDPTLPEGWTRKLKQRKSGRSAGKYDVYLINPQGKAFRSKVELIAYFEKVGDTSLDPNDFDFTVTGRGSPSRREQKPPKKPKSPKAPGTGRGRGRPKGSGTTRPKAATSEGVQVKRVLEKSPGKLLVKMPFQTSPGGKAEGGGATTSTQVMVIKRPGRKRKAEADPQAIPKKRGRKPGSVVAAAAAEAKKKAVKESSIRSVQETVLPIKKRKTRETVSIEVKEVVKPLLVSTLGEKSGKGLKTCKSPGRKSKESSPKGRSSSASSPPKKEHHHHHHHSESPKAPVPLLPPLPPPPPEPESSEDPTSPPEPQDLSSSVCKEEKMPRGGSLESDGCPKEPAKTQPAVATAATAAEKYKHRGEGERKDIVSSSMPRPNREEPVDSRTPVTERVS
AHCYL1, O43865, UniProt O43865, whole entry: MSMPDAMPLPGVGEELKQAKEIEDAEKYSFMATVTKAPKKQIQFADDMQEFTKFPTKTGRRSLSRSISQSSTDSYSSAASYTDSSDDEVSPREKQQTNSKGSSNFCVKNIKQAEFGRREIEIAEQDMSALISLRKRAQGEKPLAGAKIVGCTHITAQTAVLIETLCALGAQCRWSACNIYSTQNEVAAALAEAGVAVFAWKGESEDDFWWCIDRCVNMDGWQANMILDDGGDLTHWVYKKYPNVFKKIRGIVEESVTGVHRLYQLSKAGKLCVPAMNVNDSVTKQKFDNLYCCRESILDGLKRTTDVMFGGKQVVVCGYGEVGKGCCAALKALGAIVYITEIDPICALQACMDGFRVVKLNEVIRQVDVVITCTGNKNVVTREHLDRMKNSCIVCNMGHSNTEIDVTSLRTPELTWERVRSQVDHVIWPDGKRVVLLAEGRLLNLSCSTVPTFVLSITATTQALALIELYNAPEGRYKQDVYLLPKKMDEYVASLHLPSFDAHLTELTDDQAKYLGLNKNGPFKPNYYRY
COA4, Q9NYJ1, UniProt Q9NYJ1, whole entry: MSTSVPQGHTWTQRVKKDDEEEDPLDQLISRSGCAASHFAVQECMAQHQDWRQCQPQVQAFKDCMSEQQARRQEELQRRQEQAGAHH
DNAJB1, P25685, UniProt P25685, whole entry: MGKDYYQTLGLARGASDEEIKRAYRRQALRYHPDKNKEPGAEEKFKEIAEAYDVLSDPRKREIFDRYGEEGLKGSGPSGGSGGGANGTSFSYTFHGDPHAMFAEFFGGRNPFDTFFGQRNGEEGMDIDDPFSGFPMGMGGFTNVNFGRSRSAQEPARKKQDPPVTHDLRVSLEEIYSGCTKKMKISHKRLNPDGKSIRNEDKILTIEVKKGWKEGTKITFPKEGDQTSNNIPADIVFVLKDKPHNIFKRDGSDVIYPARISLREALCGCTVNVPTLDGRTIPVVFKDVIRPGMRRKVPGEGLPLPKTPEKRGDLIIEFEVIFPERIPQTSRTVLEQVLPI
EIF1B, O60739, UniProt O60739, whole entry: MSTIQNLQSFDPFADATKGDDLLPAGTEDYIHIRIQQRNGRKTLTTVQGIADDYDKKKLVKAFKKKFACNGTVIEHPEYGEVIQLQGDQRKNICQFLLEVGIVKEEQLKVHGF
NDUFS6, O75380, UniProt O75380, whole entry: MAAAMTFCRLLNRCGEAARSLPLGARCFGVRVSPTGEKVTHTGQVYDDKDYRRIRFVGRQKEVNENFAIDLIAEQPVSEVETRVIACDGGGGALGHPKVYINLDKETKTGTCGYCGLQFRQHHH
PCBP2, Q15366, UniProt Q15366, whole entry: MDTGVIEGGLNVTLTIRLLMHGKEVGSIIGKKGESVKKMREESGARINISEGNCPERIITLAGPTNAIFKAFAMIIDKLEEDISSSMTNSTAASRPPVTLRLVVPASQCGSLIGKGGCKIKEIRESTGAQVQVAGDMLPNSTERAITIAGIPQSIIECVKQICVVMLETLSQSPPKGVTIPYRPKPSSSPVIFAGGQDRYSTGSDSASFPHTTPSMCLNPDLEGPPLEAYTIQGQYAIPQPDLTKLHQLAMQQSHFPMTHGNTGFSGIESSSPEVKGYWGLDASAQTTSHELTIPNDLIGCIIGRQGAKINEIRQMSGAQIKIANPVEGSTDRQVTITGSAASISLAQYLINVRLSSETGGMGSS
PDLIM7, Q9NR12, UniProt Q9NR12, whole entry: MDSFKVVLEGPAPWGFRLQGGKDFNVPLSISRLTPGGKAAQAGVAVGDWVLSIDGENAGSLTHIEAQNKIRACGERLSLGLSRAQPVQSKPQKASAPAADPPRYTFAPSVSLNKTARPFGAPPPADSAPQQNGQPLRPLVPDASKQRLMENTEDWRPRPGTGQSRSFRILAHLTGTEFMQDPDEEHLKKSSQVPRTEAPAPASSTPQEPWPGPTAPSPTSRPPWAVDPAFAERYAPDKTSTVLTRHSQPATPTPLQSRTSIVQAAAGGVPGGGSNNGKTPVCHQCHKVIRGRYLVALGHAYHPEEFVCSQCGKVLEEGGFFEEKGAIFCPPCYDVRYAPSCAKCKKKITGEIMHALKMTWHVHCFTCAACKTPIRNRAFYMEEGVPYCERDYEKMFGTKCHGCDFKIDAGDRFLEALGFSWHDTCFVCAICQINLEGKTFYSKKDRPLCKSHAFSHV

The other results are listed elsewhere or left out. Only hits are listed; about a third recur on repeated control peptides.

Holding throughout (experiment): PRISMA enrichment of interactor (LFQ) in peptide spot vs all other peptide spots (log2 fold change); higher = stronger / more specific binding of the interactor to the peptide
The target of test [1] is AHSA1, O95433. The protocol:
(§1)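 PRISMA: 221 full-length sORF-encoded peptides (3-15 aa), plus SOS1/GLUT1 control peptides, were spot-synthesized on cellulose membranes in triplicate. Membranes were incubated with HEK293T lysate, and bound proteins were identified by LC-MS/MS with LFQ. Enrichment is the log2 fold change versus all other peptide spots; only significant interactors are listed (cutoff c=6, x0=2.8).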

The target of test [2] is FDX1, P10109. As to the method:
as §1

The target in test [3] is PFKP, Q01813. As to the method: as §1
Test [4] deals with AIP, O00170. As to the method:
as §1

The target of test [5] is ALKBH2, Q6NS38. As to the method:
as §1

The target of test [6] is C19orf53, Q9UNZ5. The protocol: as §1
Test [7] has as its target CCDC137, Q6PK04. The protocol:
as §1

In test [8] the target is CCDC178, Q5BJE1. As to the method:
as §1

Test [9] has as its target CSNK1E, P49674. The protocol: as §1
For test [10], the target named is CXorf56, Q9H5V9. The protocol:
as §1

Test [11] addresses ENDOG, Q14249. As to the method: as §1
Test [12] addresses PBK, Q96KB5. As to the method:
as §1

For test [13], the target named is PCLAF, Q15004. The protocol: as §1
Test [14] concerns the target PSRC1, Q6PGN9. As to the method: as §1
Test [15] concerns the target RAB34. The protocol: as §1
Test [16] concerns the target RBIS, Q8N0T1. The protocol:
as §1

Test [17] has as its target RBM33, Q96EV2. The protocol:
as §1

In test [18] the target is AFDN, P55196. As to the method: as §1
Test [19] addresses CENPE, Q02224. As to the method: as §1
Test [20] deals with LAP3, P28838. The protocol: as §1
Test [21] addresses MRPL24, Q96A35. As to the method:
as §1

Test [22] deals with NUB1, Q9Y5A7. As to the method: as §1
For test [23], the target named is NUP160, Q12769. As to the method:
as §1

Test [24] concerns the target NUP188, Q5SRE5. As to the method: as §1
In test [25] the target is RIOK2, Q9BVS4. As to the method: as §1
Test [26] concerns the target AK4, P27144. The protocol: as §1
Test [27] addresses ANKRD26, Q9UPS8. As to the method:
as §1

Test [28] deals with AP3D1, O14617. The protocol: as §1
Test [29] has as its target ASCC1, Q8N9N2. The protocol: as §1
Test [30] has as its target ATP6V1F, Q16864. The protocol: as §1
In test [31] the target is CLPX, O76031. The protocol:
as §1

In test [32] the target is COQ8A, Q8NI60. As to the method:
as §1

Test [33] addresses CTNND1, O60716. As to the method: as §1
In test [34] the target is CXorf40A, Q8TE69. The protocol:
as §1

In test [35] the target is DMD, P11532. The protocol: as §1
Test [36] addresses EHD1, Q9H4M9. The protocol:
as §1

The target of test [37] is EHD4, Q9H223. The protocol: as §1
Test [38] has as its target GGT5, P36269. As to the method:
as §1

The target of test [39] is MECP2, P51608. The protocol: as §1
Test [40] addresses MRPS34, P82930. The protocol:
as §1

Test [41] has as its target NIPSNAP1, Q9BPW8. As to the method:
as §1

Test [42] addresses OPA1, O60313. As to the method: as §1
Test [43] has as its target ORC4, O43929. The protocol: as §1
Test [44] addresses PDS5A, Q29RF7. The protocol:
as §1

Test [45] addresses PINX1, Q96BK5. As to the method:
as §1

The target in test [46] is RELCH, Q9P260. The protocol:
as §1

Test [47] has as its target RFC1, P35251. The protocol: as §1
For test [48], the target named is SCPEP1, Q9HB40. The protocol: as §1
In test [49] the target is TFB1M, Q8WVM0. As to the method: as §1
For test [50], the target named is TMEM201, Q5SNT2. The protocol: as §1
Test [51] has as its target UMPS, P11172. As to the method: as §1
Test [52] has as its target AHCYL1, O43865. As to the method: as §1
Test [53] addresses AP2A1, O95782. As to the method: as §1
In test [54] the target is GOLGB1, Q14789. As to the method:
as §1

The target in test [55] is NAP1L1, P55209. As to the method: as §1
Test [56] deals with NTHL1, P78549. As to the method: as §1
In test [57] the target is BOLA3, Q53S33. As to the method:
as §1

Test [58] addresses C20orf27, Q9GZN8. The protocol:
as §1

In test [59] the target is COA4, Q9NYJ1. As to the method: as §1
Test [60] has as its target CSRP2, Q16527. The protocol: as §1
The target of test [61] is DAZAP1, Q96EP5. As to the method:
as §1

Test [62] addresses DNAJB1, P25685. As to the method: as §1
Test [63] addresses DNAJB11, Q9UBS4. The protocol: as §1
The target in test [64] is EIF1B, O60739. The protocol:
as §1

Test [65] addresses EIF4H, Q15056. As to the method: as §1
The target of test [66] is FAM168A, Q92567. The protocol:
as §1

Test [67] has as its target ISCU, Q9H1K1. As to the method:
as §1

Test [68] has as its target JPT2, Q9H910. As to the method: as §1
Test [69] has as its target KIF4A, O95239. The protocol: as §1
Test [70] has as its target NDUFS6, O75380. As to the method:
as §1

Test [71] addresses NUP153, P49790. As to the method: as §1
The target of test [72] is NXF1, Q9UBU9. As to the method:
as §1

Test [73] addresses PCBP2, Q15366. As to the method: as §1
Substrate in test [74]: PCNP, Q8WW12
As to the method: as §1

Test [75] concerns the target PDLIM3, Q53GG5. As to the method:
as §1

Test [76] deals with PDLIM7, Q9NR12. The protocol: as §1
In test [77] the target is RBM14, Q96PK6. As to the method: as §1
Test [78] addresses SDF2L1, Q9HCN8. The protocol:
as §1

Test [79] deals with SEH1L, Q96EE3. The protocol:
as §1

The target in test [80] is UBE2S, Q16763. As to the method:
as §1

Test [81] addresses WDR5, P61964. The protocol: as §1

For MVARLAVEPTES [CNOT4], the “PRISMA enrichment of interactor (log2)” value stood at 5.47 in [1], 4.86 in test [2] and 4.56 in test [3].
With MTVALYE [RP11-121C2.3], the “PRISMA enrichment of interactor (log2)” value in [4] is 4.1; in test [5], 5.57; in [6], 8.49; in test [7], 5.76; in [8], 6.7; in test [9], 6.59. Moreover, the “PRISMA enrichment of interactor (log2)” value in [10] amounted to 6.68; in [11], 4.16; in test [12], 5.06; in [13], 5; in test [14] it was 5.04; in [15] it was 4.83. Moreover, the “PRISMA enrichment of interactor (log2)” value in [16] came out at 4.72; in [17], 5.35.
On to MTPIRDPQRRCMSM [SLC38A1], for which the “PRISMA enrichment of interactor (log2)” value turned out to be 6.76 in test [18]; 5.13 in [19]; 5.13 in [20]; 4.75 in test [21]; 7.05 in test [22]; 7.78 in [23]. The “PRISMA enrichment of interactor (log2)” value in [24] turned out to be 5.5; in test [25] it was 4.64.
Regarding MNWLQWLLLLRGR [EDEM2], the “PRISMA enrichment of interactor (log2)” value in [26] worked out at 5.37; in [27] it was 4.19; in [28], 4.61; in test [29] it was 3.8; in [30], 4.4; in test [31] it was 4.66. Moreover, the “PRISMA enrichment of interactor (log2)” value in test [32] came to 4.79; in test [33], 4.71; in test [34] it was 7.65; in test [35], 7.93; in [36], 4.93; in test [37], 5.43. The “PRISMA enrichment of interactor (log2)” value was found to be 5.49 in test [38]; 5.61 in [39]; 6.7 in [40]; 4.59 in test [41]; 4.67 in [42]; 5.79 in test [43]. For the same molecule, the “PRISMA enrichment of interactor (log2)” value in [44] was found to be 4.59; in test [45] it was 5.95; in test [46] it was 3.97; in test [47], 4.53; in test [48], 6.14; in [49] it was 5.67. The “PRISMA enrichment of interactor (log2)” value was determined as 5.69 in test [50] and 5.61 in test [51].
As for MHVALAELRREA [ABLIM1], the “PRISMA enrichment of interactor (log2)” value in test [52] came to 4.41; in test [53], 4.63; in test [54], 7.3; in [55], 4.87; in test [56], 4.74.
Regarding MRTIYMEVSFS [MBNL2], the “PRISMA enrichment of interactor (log2)” value was 6.08 in test [1]; 6.15 in [57]; 3.72 in [58]; 4.71 in test [59]; 5.63 in test [60]; 5.47 in test [10]. Also, the “PRISMA enrichment of interactor (log2)” value in test [61] turned out to be 5.89; in [62], 4.54; in test [63] it was 7.03; in test [64], 4.14; in test [65], 5.56; in [66], 4.83. Moreover, the “PRISMA enrichment of interactor (log2)” value in test [67] came to 6.83; in [68] it was 4.65; in test [69], 5.04; in test [70] it was 5.88; in test [71] it was 6.34; in test [72] it was 6.65. Moreover, the “PRISMA enrichment of interactor (log2)” value in test [73] worked out at 5.35; in [74] it was 5.69; in test [75], 3.78; in test [76], 4.49; in test [77], 5.94; in test [78] it was 4.79. The “PRISMA enrichment of interactor (log2)” value in [79] was determined as 4.31; in test [80], 4.76; in test [81], 6.39.
